In publication PMC8534798 one finds binding data, which are given here for three substances.

Sequences of proteins named here, by UniProt entry; tags and fusion partners are left off. A change or cut given only in a name is not applied to a line headed by its entry.
UniProt P84022: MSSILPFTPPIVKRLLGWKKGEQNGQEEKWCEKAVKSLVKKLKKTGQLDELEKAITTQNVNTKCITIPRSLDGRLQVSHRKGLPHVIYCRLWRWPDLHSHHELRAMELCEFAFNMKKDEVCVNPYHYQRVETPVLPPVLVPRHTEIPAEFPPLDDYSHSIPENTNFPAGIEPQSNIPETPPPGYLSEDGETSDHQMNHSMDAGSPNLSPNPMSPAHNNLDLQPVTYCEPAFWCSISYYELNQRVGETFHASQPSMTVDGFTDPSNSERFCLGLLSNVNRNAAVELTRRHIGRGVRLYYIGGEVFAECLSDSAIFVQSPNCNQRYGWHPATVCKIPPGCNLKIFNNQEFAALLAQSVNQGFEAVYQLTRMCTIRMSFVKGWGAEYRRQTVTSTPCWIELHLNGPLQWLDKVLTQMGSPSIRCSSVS
UniProt Q15796: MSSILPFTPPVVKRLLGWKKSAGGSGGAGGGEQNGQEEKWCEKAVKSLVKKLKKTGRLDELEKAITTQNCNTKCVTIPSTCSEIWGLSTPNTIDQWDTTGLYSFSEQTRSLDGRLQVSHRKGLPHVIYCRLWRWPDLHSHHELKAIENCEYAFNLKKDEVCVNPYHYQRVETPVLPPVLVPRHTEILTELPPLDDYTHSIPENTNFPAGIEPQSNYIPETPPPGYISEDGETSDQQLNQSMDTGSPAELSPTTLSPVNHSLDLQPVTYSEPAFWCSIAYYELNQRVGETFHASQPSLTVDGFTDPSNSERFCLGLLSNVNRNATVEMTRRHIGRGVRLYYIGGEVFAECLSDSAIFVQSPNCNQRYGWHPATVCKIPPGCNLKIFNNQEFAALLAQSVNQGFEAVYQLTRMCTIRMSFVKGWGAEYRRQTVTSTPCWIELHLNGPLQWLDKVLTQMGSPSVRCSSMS

These are yes or no findings as the source states them, for the method shown. Binding seen in cells or lysates may run through a third protein. Some results given as binding are weak or reduced against the parent protein; the word gives no strength. Sequences can lack the tags named with a protein.

For this assay, the target named is T1, Flag-Foxd4l1.1 (Xenopus) (UniProt Q9PRJ8).
T1 sequence: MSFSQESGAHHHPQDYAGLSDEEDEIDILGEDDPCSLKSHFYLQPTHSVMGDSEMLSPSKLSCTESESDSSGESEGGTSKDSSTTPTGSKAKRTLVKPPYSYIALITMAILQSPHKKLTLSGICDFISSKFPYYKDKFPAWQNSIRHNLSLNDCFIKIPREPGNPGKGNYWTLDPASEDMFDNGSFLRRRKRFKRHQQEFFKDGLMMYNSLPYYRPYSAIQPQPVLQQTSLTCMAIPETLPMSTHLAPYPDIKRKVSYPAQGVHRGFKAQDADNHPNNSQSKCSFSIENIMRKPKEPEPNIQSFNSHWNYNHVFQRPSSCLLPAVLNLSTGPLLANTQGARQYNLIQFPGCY
Nature of the assay: co-IP; Xenopus embryos co-injected with Flag-foxd4l1.1 and HA-smad2/HA-smad3 (wild type or truncated) mRNA at the one-cell stage, harvested at stage 10.5 or 11; cleared lysates incubated overnight at 4 °C with anti-Flag, protein A/G beads; Western blot with anti-HA. Background: A western blot detects proteins with antibodies after separation by electrophoresis.
For the substance “HA-Smad3 (wild type) (from UniProt P84022 1-425)”, the binding result is “binds”.

For the substance “HA-Smad2 (wild type) (from UniProt Q15796 1-467)”, the binding entry is “binds”.

For “HA-Smad2-C-ter (from UniProt Q15796 274-467) (domain or fragment)”, the binding result was “binds”.
